No constants are given. Whether binding was seen depends on the method and setting. Some results given as binding are weak or reduced against the parent protein; the word gives no strength.
T1: 重组人PLVAP/PV-1蛋白 (human) (UniProt Q9BX97)
T1 sequence (looked up): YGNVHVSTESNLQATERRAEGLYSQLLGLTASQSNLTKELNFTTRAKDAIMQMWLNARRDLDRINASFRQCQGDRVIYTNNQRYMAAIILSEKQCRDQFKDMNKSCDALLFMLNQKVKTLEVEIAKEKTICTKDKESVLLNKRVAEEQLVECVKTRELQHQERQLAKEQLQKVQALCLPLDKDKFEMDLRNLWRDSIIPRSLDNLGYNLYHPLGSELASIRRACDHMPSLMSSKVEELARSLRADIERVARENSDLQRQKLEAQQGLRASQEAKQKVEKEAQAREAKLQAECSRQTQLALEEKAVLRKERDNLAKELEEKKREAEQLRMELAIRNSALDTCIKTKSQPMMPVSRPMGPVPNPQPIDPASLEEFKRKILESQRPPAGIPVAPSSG


Target: T1, 重组人PLVAP/PV-1蛋白 (human)
Assay: SPR, Biacore T200, full IgG1 antibodies

Binder	binding
HLPV-P02 (antibody, IgG1, V domains shown, not shown: a dimerising Fc or GST) VH: QVQLVQSGAEVKKPGASVKVSCKASGYVFTDYYMYWVRQAPGQGLEWIGEINPTTGDVNFNEMFKSRVTMTVDTSTSTAYMELSSLRSEDTAVYYCTSIFYWGQGTLVTVSS VL: DIVMTQSPSSLSASVGDRVTITCKASQDIKYQLSWYQQKPGKAPKTLIYYSTDLADGVPSRFSGSGSGQEFTLTISSLQPEDFATYYCVQHDDRPFTFGQGTKLEIK	binds
HLPV-P04 (antibody, IgG1, V domains shown, not shown: a dimerising Fc or GST) VH: QVQLVQSGAEVKKPGASVKVSCKASGYTFRDYYMYWVRQAPGQGLEWIGEINPTTGDVNFNEMFKSRVTMTVDTSTSTAYMELSSLRSEDTAVYYCTSIFYWGQGTLVTVSS VL: DIVMTQSPSSLSASVGDRVTITCKASQDIKYQLSWYQQKPGKAPKTLIYYATSLADGVPSRFSGSGSGQEFTLTISSLQPEDFATYYCVQHDDRPFTFGQGTKLEIK	binds
HLPV-P03 (antibody, IgG1, V domains shown, not shown: a dimerising Fc or GST) VH: QVQLVQSGAEVKKPGASVKVSCKASGYTFEDYYMYWVRQAPGQGLEWIGEVNPTQGDVNFNEMFKSRVTMTVDTSTSTAYMELSSLRSEDTAVYYCTSIFYWGQGTLVTVSS VL: DIVMTQSPSSLSASVGDRVTITCKASQDIKYQLSWYQQKPGKAPKTLIYYATFLADGVPSRFSGSGSGQEFTLTISSLQPEDFATYYCVQHDDRPFTFGQGTKLEIK	binds
HLPV-P07 (antibody, IgG1, V domains shown, not shown: a dimerising Fc or GST) VH: QVQLVQSGAEVKKPGASVKVSCKASGYTFEDYYMYWVRQAPGQGLEWIGEINPTQGDVRFNEMFKSRVTMTVDTSTSTAYMELSSLRSEDTAVYYCTSIFYWGQGTLVTVSS VL: DIVMTQSPSSLSASVGDRVTITCKASQDIKYQLSWYQQKPGKAPKTLIYYATYLADGVPSRFSGSGSGQEFTLTISSLQPEDFATYYCVQHDDRPFTFGQGTKLEIK	binds
HLPV-P05 (antibody, IgG1, V domains shown, not shown: a dimerising Fc or GST) VH: QVQLVQSGAEVKKPGASVKVSCKASGYTFTDYYMYWVRQAPGQGLEWIGEINPTQGDVNFNEMFKSRVTMTVDTSTSTAYMELSSLRSEDTAVYYCTSIFYWGQGTLVTVSS VL: DIVMTQSPSSLSASVGDRVTITCKASQDIKYQLTWYQQKPGKAPKTLIYYATDLADGVPSRFSGSGSGQEFTLTISSLQPEDFATYYCVQHDNRPFTFGQGTKLEIK	binds
HLPV-P06 (antibody, IgG1, V domains shown, not shown: a dimerising Fc or GST) VH: QVQLVQSGAEVKKPGASVKVSCKASGYTFTAYYMYWVRQAPGQGLEWIGEINPTSGDVNFNEMFKSRVTMTVDTSTSTAYMELSSLRSEDTAVYYCTSIFYWGQGTLVTVSS VL: DIVMTQSPSSLSASVGDRVTITCKASQDIKYQLSWYQQKPGKAPKTLIYYATFLADGVPSRFSGSGSGQEFTLTISSLQPEDFATYYCVQHDDRPFTFGQGTKLEIK	binds

Next, values leading:

binding	Binder
binds	HLPV-P09 (antibody, IgG1, V domains shown, not shown: a dimerising Fc or GST) VH: QVQLVQSGAEVKKPGASVKVSCKASGYTFTDYYMYWVRQAPGQGLEWIGEINPTQGDVNFNEMFKSRVTMTVDTSTSTAYMELSSLRSEDTAVYYCTTIFYWGQGTLVTVSS VL: DIVMTQSPSSLSASVGDRVTITCKASQDIGYQLSWYQQKPGKAPKTLIYYATDLADGVPSRFSGSGSGQEFTLTISSLQPEDFATYYCVQHYDRPFTFGQGTKLEIK
binds	HLPV-P11 (antibody, IgG1, V domains shown, not shown: a dimerising Fc or GST) VH: QVQLVQSGAEVKKPGASVKVSCKASGYTFTDYYMYWVRQAPGQGLEWIGEINPTQGDVNFNEMFKSRVTMTVDTSTSTAYMELSSLRSEDTAVYYCTTIFYWGQGTLVTVSS VL: DIVMTQSPSSLSASVGDRVTITCKASQDIKYQLSWYQQKPGKAPKTLIYYATDLADGVPSRFSGSGSGQEFTLTISSLQPEDFATYYCVQHDDRPFSFGQGTKLEIK
binds	HLPV-P12 (antibody, IgG1, V domains shown, not shown: a dimerising Fc or GST) VH: QVQLVQSGAEVKKPGASVKVSCKASGYTFTDYYMYWVRQAPGQGLEWIGEINPSQGDVNFNEMFKSRVTMTVDTSTSTAYMELSSLRSEDTAVYYCTSIFYWGQGTLVTVSS VL: DIVMTQSPSSLSASVGDRVTITCKASQDIKYQLSWYQQKPGKAPKTLIYYATDRADGVPSRFSGSGSGQEFTLTISSLQPEDFATYYCVQHDDRPFTFGQGTKLEIK
binds	HLPV-P13 (antibody, IgG1, V domains shown, not shown: a dimerising Fc or GST) VH: QVQLVQSGAEVKKPGASVKVSCKASGYVFTDYYMYWVRQAPGQGLEWIGEINPTSGDVNFNEMFKSRVTMTVDTSTSTAYMELSSLRSEDTAVYYCTSIFYWGQGTLVTVSS VL: DIVMTQSPSSLSASVGDRVTITCKASQDIKYQLSWYQQKPGKAPKTLIYYAGDLADGVPSRFSGSGSGQEFTLTISSLQPEDFATYYCVQHDDRPFTFGQGTKLEIK
binds	HLPV-P14 (antibody, IgG1, V domains shown, not shown: a dimerising Fc or GST) VH: QVQLVQSGAEVKKPGASVKVSCKASGYTFTNYYMYWVRQAPGQGLEWIGEINPTSGDVNFNEMFKSRVTMTVDTSTSTAYMELSSLRSEDTAVYYCTSIFYWGQGTLVTVSS VL: DIVMTQSPSSLSASVGDRVTITCKASQDIKYQLSWYQQKPGKAPKTLIYYAGDLADGVPSRFSGSGSGQEFTLTISSLQPEDFATYYCVQHDDRPFTFGQGTKLEIK
binds	HLPV-P08 (antibody, IgG1, V domains shown, not shown: a dimerising Fc or GST) VH: QVQLVQSGAEVKKPGASVKVSCKASGYTFTDYYMYWVRQAPGQGLEWIGEINPTQGDVNFNEMFKSRVTMTVDTSTSTAYMELSSLRSEDTAVYYCTTIFYWGQGTLVTVSS VL: DIVMTQSPSSLSASVGDRVTITCKASQDIKYQLTWYQQKPGKAPKTLIYYATDLADGVPSRFSGSGSGQEFTLTISSLQPEDFATYYCVSHDDRPFTFGQGTKLEIK
binds	HLPV-P10 (antibody, IgG1, V domains shown, not shown: a dimerising Fc or GST) VH: QVQLVQSGAEVKKPGASVKVSCKASGYTFTDYYMYWVRQAPGQGLEWIGEINPTQGDVNFNEMFKSRVTMTVDTSTSTAYMELSSLRSEDTAVYYCTSIFYWGQGTLVTVSS VL: DIVMTQSPSSLSASVGDRVTITCKASQDIKYQLTWYQQKPGKAPKTLIYYATDLADGVPSRFSGSGSGQEFTLTISSLQPEDFATYYCVQHSDRPFTFGQGTKLEIK
